# Results: patent US12268777B2, “Compositions and methods for treating eosinophilic disorders” (The Regents of the University of California, priority 2019, dated 2025)
# “Also recorded” adds a separate entry of the source. At least one structure is not confirmed: it was looked up by name or label, or the drawing left a doubt.
# What was measured:
# [1] = tested on: EoE-derived primary esophageal fibroblasts; test: Western immunoblot of pro-fibrotic protein expression in EoE-derived esophageal fibroblasts; format: cell-based, human
# [2] = tested on: nonalcoholic steatohepatitis (NASH); details: adults with NASH; cited from earlier work
# Smad2/3 = test: TGF-β1-induced Smad2/3 phosphorylation in EoE-derived esophageal fibroblasts (immunoblot); format: cell-based, human; details: 20 μM 3 h, then TGF-β1 5 ng/mL 30 minutes
# ulcerative colitis = details: cited from earlier work
# [3] = tested on: primary esophageal fibroblasts derived from healthy donors; test: qPCR of pro-fibrotic gene expression in esophageal fibroblasts from healthy donors stimulated with TGF-β1; format: cell-based, human; details: up to 20 μM
# [4] = tested on: EoE-derived primary esophageal fibroblasts; test: qPCR of pro-fibrotic gene expression in EoE-derived esophageal fibroblasts stimulated with TGF-β1
# p38 = test: TGF-β1-induced p38 phosphorylation in EoE-derived esophageal fibroblasts (immunoblot); format: cell-based, human
# [5] = fibroblasts of a representative patient with EoE, pioglitazone 20 μM
# [6] = rosiglitazone 20 μM 3 h, then TGF-β1 5 ng/mL 24 h
smiles,measurement,setting,value
CCc1ccc(CCOc2ccc(CC3SC(=O)NC3=O)cc2)nc1 (stereo not shown) [pioglitazone],basal and TGF-β1-treated protein levels of fibronectin,"[1]; EoE fibroblasts, 20 μM",negligible
same,TGF-β1-mediated collagen-1α1 induction (protein),[1]; [5],significantly decreased
same,TGF-β1-mediated α-sma induction (protein),[1]; [5],significantly decreased
same,liver fibrosis,[2],improves liver fibrosis
same,"resolution of NASH, patients",[2],up to 51%
CN(CCOc1ccc(CC2SC(=O)NC2=O)cc1)c1ccccn1 (stereo not shown) [rosiglitazone],Smad2/3 phosphorylation induced by TGF-β1,Smad2/3,not affected
same,basal and TGF-β1-treated protein levels of fibronectin,"[1]; EoE fibroblasts, 20 μM",negligible
same,TGF-β1-driven α-sma protein,"[1]; EoE fibroblasts, 20 μM, N=7 patients",trend toward reducing
same,basal collagen-1 protein,"[1]; EoE fibroblasts, 20 μM, n=8, P=0.0496",reduced
same,TGF-β1-induced collagen-1 protein level,"[1]; EoE fibroblasts, rosiglitazone 20 μM, TGF-β1 5 ng/mL 24 h",inhibited; also recorded: significantly reduced
same,"TGF-β1-driven α-sma protein, biological replicates","[1]; representative patient with EoE, 20 μM, P=0.0021",significant reduction
same,ulcerative colitis after topical delivery,ulcerative colitis; enema,improved ulcerative colitis
same,treatment of mild to moderately active ulcerative colitis,"ulcerative colitis; human, in vivo",effective
same,basal and TGF-β1-induced α-sma gene expression,[3],insignificant activities
same,dose dependence of inhibition of pro-fibrotic gene expression,[4]; 10 μM or 20 μM,dose-dependent effect
same,TGF-β1-induced mRNA expression of collagen-1α1,[4]; [6],significantly inhibited
same,TGF-β1-induced mRNA expression of connective tissue growth factor (ctgf),[4]; [6],significantly inhibited
same,TGF-β1-induced mRNA expression of α-sma,[4]; [6],significantly inhibited
same,effect on p38 phosphorylation at lower concentration,"p38; EoE fibroblasts, 2 μM",observed potently
same,p38 phosphorylation induced by TGF-β1,"p38; EoE fibroblasts, 20 μM 3 h, then TGF-β1 5 ng/mL 30 minutes",significantly inhibited
same,dose dependence of inhibition of TGF-β1-induced p38 phosphorylation,"p38; EoE fibroblasts, 2 or 20 μM",dose-dependently
same,total p38 levels,"p38; basally, on TGF-β1 stimulation, or in the presence of rosiglitazone (data not shown)",unchanged
